The target of the experiment is UXT purified from the UXT-eYFP-10×His construct (human) (UniProt Q9UBK9). Briefly: co-purification (Ni-NTA, then SEC) with western blot; UXT-eYFP-10×His expressed in HEK293E, Ni-NTA, HRV3C cleavage, second Ni-NTA, SEC; UXT-containing fractions near the void volume blotted with anti-UXT, anti-p62 and anti-LC3. In general terms: Immunoblotting shows a protein as a band on a membrane.

Results are given in words; binding and its absence hold for the method and conditions named. Some entries that bind do so weakly or less than the wild type.

With “endogenous p62 in HEK293E cells (from UniProt Q13501 1-440)”, the binding entry is listed as “binds”.
